Results on four substances are retold here after publication PMC10356771.

The chains behind the UniProt entries cited, without tags or fusion partners.
UniProt Q62296: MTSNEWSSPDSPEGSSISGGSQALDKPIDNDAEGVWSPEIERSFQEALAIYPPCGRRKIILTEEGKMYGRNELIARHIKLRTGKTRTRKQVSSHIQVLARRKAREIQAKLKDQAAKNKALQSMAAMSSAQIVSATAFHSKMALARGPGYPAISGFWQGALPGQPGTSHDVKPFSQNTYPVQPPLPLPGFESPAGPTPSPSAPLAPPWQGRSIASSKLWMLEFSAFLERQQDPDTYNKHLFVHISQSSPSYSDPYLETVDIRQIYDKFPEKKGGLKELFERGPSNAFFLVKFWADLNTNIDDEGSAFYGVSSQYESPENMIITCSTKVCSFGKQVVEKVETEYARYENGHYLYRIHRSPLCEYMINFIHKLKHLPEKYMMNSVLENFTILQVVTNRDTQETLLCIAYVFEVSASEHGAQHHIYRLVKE
UniProt Q9Z0Z7: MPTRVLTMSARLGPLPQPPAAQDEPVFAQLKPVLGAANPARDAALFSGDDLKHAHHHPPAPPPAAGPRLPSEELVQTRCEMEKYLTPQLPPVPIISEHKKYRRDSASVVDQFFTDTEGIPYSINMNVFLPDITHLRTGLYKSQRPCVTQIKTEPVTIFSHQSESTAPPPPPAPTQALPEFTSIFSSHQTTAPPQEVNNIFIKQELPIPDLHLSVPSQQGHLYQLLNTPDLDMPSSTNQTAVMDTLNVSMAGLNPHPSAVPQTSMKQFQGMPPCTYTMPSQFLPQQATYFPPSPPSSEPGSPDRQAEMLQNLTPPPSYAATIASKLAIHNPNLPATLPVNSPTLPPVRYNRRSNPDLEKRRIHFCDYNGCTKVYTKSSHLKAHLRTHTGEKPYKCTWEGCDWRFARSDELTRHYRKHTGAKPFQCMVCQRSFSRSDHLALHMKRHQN

Experiment [1] addresses Tead4 (endogenous, C2C12) (mouse (endogenous in C2C12)) (UniProt Q62296). Nature of the experiment: co-IP; endogenous proteins in C2C12 cells; precipitating antibody not told in the text shown.
The target of the next experiment is T1, Myogenin-Flag (UniProt P12979).
T1 sequence: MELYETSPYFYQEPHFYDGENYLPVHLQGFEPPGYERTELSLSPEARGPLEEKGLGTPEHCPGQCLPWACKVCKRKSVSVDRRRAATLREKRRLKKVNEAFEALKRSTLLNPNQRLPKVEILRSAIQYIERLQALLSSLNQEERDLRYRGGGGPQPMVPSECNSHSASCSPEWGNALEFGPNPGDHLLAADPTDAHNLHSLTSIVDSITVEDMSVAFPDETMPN
Nature of the experiment: co-IP; HEK293T cells expressing tagged proteins; Flag M2 antibody on Dynabeads Protein G; lysis buffer 50 mM Tris-HCl pH 7.5, 150 mM NaCl, 1% NP-40, 0.1% sodium deoxycholate; 3 h at 4 °C; eluted with 3x Flag peptide; Western blot. (Immunoblotting shows a protein as a band on a membrane.)

A further experiment addresses Tead4-Flag (UniProt Q62296). The description is as above.
The target of experiment [2] is T2, Myogenin (endogenous, C2C12) (mouse (endogenous in C2C12)) (UniProt P12979).
T2 sequence: T1 sequence
Kind of experiment: co-IP; endogenous proteins in C2C12 cells; precipitating antibody not told in the text shown.

Results are given in words; binding and its absence hold for the method and conditions named. Binding seen in cells or lysates may run through a third protein. Some results given as binding are weak or reduced against the parent protein; the word gives no strength. For some assays here: Sequences can lack the tags named with a protein.

On to “Klf5 (endogenous, C2C12) (from UniProt Q9Z0Z7 1-446)”, for which, in experiment [1], the binding entry is “binds”. Regarding Klf5-HA (from UniProt Q9Z0Z7 1-446), the binding entry with Myogenin-Flag and with Tead4-Flag was “binds” in each case. Consider “Tead4 (endogenous, C2C12) (from UniProt Q62296 1-427)”, for which, in experiment [2], the binding entry was “binds”. In the case of Tead4-HA (from UniProt Q62296 1-427), the binding entry with Myogenin-Flag is on record as “binds”.
